Laboratory results taken from US10058598B2, “Peptides and combination of peptides for use in immunotherapy against various cancers” (immatics biotechnologies GmbH, priority 2015, dated 2018).

What was measured:
[1] = test system: A*24-positive cancer samples, cell lines and normal tissue samples; experiment: Identification and label-free relative LC-MS quantitation of HLA-A*24 tumor associated peptides presented on tumor versus normal tissues (XPRESIDENT); set-up: species or system human; key: specifically presented on tumors (++++); very highly over-presented on tumors compared to a panel of normal tissues (+++); highly over-presented on tumors compared to a panel of normal tissues (++); over-presented on tumors compared to a panel of normal tissues (+); settings: HLA-A*24 peptides
[2] = test system: source genes of the peptides (mRNA); experiment: Expression profiling of source genes by in-house RNAseq of tumor and normal tissue RNA (expression scores); set-up: species or system human; key: +++: very highly over-expressed in tumors compared to a panel of normal tissues; ++: highly over-expressed in tumors compared to a panel of normal tissues; +: over-expressed in tumors compared to a panel of normal tissues

Question: For “193 (RFHPTPLLL; listed as Homo sapiens) [compound 193]”, which “Presentation score RCC” value ([1]; RCC = renal cell carcinoma (N = 2) vs panel of normal tissues (N = 70)) is on record?
Answer: The value was “++++”.

Question: With “292: peptide found in SLC35E1 (gene looked up) (GMMTAILGV; listed as Homo sapiens) [compound 292]” as the substance, how does the “Expression score GB” value ([2]; GB = glioblastoma (N = 24) vs panel of normal tissues) read?
Answer: Its value is “+++”.

Question: What does the source list for “282: peptide found in NUP93 (gene looked up) (KFVDSTFYL; listed as Homo sapiens) [compound 282]”?
Answer: Expression score NSCLC ([2]; NSCLC = non-small cell lung cancer (N = 11) vs panel of normal tissues): +; Expression score OC ([2]; OC = ovarian cancer (N = 12) vs panel of normal tissues): ++; Expression score OSCAR ([2]; OSCAR = esophageal cancer, including cancer of the gastric-esophageal junction (N = 11) vs panel of normal tissues): +

Question: “178 (IFIEVFSHF; listed as Homo sapiens) [compound 178]” was tested. Which “Presentation score HCC” value ([1]; HCC = hepatocellular carcinoma (N = 15) vs panel of normal tissues (N = 70)) did it give?
Answer: Its value is “++++”.

For part of these data: For expression read-outs the peptide stands for its source gene, whose mRNA was measured; the gene is not named for every peptide.
